Results: article PMC10472876
These are yes or no findings as the source states them, for the method shown. Binding seen in cells or lysates may run through a third protein. Here binding means that the protein was enriched with, or labelled near, the bait; the list need not be complete.

Sequences of proteins named here, by UniProt entry; tags and fusion partners are left off. Residues count along the entry.
UniProt Q14790: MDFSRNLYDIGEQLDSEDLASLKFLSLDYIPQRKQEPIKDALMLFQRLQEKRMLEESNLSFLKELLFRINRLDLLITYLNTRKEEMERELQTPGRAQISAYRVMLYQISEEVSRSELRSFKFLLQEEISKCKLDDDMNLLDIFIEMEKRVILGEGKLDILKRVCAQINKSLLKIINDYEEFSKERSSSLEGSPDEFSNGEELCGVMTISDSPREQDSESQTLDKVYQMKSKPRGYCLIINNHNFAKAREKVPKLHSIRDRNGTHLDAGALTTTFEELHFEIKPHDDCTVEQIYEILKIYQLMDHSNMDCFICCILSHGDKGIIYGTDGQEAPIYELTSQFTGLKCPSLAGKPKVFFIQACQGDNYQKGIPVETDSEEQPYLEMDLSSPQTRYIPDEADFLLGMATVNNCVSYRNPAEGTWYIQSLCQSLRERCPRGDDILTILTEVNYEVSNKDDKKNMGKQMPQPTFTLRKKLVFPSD
UniProt P50591, residues 95-281: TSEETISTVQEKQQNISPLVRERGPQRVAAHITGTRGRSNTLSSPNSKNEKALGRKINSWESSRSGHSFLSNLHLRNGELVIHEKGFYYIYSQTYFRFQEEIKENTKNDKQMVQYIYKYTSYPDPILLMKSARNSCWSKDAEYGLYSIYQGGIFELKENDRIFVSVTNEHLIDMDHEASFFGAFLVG

Target: CASP8 (caspase 8), endogenous (human (endogenous in HeLa)) (UniProt Q14790)
Test: affinity purification with mass spectrometry; as a1; the recombinant purified HF-TNFSF10/TRAIL added to living HeLa cells (1 µg/ml, 3 h) is found in the anti-CASP8 bTIP; only the binder purified

binding: binds
Substance: HF-TNFSF10/TRAIL (FLAG- and 6×His-tagged extracellular portion of human TNFSF10/TRAIL, AA95–281) (from UniProt P50591 95-281) (ligand)
